The text below walks through data of publication PMC9550257.

The chains behind the UniProt entries cited, without tags or fusion partners.
UniProt Q93009: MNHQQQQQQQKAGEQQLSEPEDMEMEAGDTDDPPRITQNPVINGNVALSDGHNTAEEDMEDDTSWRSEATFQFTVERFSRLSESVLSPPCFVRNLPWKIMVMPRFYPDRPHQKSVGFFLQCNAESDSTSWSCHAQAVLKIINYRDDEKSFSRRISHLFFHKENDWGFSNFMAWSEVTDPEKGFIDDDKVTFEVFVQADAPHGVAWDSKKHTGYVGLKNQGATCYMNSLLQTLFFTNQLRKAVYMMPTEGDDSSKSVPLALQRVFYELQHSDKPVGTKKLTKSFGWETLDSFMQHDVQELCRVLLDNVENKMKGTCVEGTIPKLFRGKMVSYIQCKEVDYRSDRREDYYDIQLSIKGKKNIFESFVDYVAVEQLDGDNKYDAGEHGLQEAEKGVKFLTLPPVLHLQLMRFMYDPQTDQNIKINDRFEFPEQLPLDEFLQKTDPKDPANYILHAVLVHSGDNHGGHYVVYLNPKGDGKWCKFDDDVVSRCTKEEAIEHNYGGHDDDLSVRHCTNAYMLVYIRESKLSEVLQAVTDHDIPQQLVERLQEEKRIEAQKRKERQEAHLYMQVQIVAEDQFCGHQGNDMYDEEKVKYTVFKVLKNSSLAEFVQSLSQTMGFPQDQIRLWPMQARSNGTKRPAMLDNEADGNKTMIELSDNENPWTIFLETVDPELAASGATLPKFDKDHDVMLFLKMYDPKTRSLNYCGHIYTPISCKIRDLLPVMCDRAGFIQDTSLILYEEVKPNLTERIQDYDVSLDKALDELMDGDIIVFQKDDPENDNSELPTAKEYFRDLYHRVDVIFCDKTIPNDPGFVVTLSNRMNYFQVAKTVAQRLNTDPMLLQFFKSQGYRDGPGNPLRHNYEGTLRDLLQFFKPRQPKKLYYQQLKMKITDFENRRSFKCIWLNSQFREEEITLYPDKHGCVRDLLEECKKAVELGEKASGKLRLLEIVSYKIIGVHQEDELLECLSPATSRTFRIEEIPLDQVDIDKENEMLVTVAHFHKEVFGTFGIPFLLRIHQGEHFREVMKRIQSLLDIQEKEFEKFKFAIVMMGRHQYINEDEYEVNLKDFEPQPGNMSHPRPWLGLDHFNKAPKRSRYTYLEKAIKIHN
UniProt O15205: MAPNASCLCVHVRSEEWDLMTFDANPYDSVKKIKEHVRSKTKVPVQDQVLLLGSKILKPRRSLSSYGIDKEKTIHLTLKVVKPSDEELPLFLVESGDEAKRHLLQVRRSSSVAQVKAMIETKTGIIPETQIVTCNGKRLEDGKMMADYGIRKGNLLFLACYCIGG

These are yes or no findings as the source states them, for the method shown. Binding seen in cells or lysates may run through a third protein. Some entries that bind do so weakly or less than the wild type.

For assay [1], the target named is T1, checkpoint kinase 1 (CHK1) (human (in HK-2 cells)) (UniProt O14757).
T1 sequence: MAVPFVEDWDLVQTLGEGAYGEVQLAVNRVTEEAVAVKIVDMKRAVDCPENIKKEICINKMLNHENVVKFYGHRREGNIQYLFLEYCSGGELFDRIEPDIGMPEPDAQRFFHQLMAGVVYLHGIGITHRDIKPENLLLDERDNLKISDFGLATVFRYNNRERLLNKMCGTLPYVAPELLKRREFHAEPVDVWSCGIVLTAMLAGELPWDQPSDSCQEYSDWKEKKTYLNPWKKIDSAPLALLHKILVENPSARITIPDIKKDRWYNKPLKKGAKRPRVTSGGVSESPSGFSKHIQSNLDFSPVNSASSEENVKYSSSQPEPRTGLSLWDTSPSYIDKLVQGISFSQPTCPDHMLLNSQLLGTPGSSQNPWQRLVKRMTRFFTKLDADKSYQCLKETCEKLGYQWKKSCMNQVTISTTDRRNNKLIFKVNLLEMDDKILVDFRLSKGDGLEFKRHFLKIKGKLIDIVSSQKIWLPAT
Kind of assay: co-IP; HK-2 cells; FAT10 and CHK1 (Supplementary Figure 4).

The target in assay [2] is USP7 (construct of the competitive GST pull-down) (UniProt Q93009). The assay can be described thus: pull-down; called GST pull-down; HEK-293T cells transfected with the indicated constructs, lysed, IP with anti-His beads, GST binding detected; competition of Ub and FAT10 for USP7.
The target in assay [3] is human leukocyte antigen-F adjacent transcript 10 (FAT10) (human (endogenous in HK-2)) (UniProt O15205). Kind of assay: co-IP; HK-2 cells, with antibodies to endogenous USP7 and FAT10 (Supplementary Figure 5A).

For “human leukocyte antigen-F adjacent transcript 10 (FAT10) (from UniProt O15205 1-165)”, the binding result in assay [1] was “no binding”.

Take “FAT10 (construct of the competitive GST pull-down) (from UniProt O15205 1-165)”: the binding result in assay [2] is reported as “binds”.

As for “ubiquitin specific protease 7 (USP7) (from UniProt Q93009 1-1102) (enzyme)”, in assay [3], the binding result was “binds”.
